These are yes or no findings as the source states them, for the method shown. In cells and extracts the contact can be indirect. Some entries that bind do so weakly or less than the wild type.

By UniProt entry, the sequences of proteins in these tests, tags left out.
UniProt Q16666: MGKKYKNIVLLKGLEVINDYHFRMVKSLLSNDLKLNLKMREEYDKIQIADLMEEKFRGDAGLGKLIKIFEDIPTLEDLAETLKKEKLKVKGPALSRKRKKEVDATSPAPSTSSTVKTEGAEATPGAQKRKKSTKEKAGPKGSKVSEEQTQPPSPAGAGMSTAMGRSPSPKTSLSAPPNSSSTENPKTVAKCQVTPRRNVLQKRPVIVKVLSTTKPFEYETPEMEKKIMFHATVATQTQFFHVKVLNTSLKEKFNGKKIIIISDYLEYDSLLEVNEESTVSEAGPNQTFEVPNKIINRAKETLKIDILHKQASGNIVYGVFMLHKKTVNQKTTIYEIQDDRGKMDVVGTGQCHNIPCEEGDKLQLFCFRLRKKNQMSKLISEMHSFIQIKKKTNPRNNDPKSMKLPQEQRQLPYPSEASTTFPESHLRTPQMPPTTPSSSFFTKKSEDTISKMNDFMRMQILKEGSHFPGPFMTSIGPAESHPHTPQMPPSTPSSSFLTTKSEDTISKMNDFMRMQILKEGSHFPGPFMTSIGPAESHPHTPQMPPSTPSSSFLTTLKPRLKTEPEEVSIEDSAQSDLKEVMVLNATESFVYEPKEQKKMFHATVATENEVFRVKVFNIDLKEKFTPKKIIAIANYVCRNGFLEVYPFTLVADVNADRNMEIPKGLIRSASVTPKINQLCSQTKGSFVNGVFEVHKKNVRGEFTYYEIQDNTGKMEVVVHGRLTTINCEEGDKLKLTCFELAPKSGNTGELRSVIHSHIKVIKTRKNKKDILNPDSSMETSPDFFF
UniProt Q8N884: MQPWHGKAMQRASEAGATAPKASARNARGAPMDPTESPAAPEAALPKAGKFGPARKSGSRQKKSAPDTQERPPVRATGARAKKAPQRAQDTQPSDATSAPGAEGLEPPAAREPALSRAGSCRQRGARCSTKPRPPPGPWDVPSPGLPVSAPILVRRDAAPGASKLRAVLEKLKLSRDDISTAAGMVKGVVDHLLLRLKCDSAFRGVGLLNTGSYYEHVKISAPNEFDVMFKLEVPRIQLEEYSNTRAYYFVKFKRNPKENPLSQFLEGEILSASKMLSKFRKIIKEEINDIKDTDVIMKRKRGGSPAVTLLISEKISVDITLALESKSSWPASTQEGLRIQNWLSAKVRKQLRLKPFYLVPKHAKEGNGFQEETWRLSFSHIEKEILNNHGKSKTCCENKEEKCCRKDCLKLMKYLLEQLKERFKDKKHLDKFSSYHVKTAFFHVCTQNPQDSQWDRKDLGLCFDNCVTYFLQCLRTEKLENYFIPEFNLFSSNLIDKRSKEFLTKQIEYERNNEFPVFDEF
UniProt Q9ULZ3: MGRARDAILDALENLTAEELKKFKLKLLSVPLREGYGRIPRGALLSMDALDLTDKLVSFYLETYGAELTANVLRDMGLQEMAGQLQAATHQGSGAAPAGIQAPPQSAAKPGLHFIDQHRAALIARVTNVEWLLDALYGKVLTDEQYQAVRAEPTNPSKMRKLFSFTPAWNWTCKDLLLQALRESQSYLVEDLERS
UniProt Q86WV6: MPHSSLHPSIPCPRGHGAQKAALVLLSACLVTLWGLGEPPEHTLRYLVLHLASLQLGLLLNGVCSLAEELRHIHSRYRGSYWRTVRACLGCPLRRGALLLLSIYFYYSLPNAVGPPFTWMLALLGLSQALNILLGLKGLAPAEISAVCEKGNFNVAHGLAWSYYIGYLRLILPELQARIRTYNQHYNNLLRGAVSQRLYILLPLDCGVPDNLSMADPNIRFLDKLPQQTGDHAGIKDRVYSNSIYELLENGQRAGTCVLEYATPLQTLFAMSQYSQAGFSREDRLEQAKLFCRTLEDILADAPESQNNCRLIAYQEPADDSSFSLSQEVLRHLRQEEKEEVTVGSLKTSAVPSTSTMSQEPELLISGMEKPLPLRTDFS

The values that follow come from publication PMC5072618.

In experiment [1] the target is IFI16 (gamma-interferon-inducible protein 16) (human (endogenous in HMVEC-d, HFF, BJAB, BCBL-1)) (UniProt Q16666). The experiment in a line: co-IP; nuclear fractions of uninfected BJAB, HMVEC-d and HFF cells; IP with anti-IFI16, anti-H2B or anti-cGAS antibodies overnight at 4°C, protein A/G sepharose, immunoblot.
Experiment [2] has as its target cGAS (cGAMP-Synthase) (human (endogenous in HMVEC-d, BJAB, BCBL-1)) (UniProt Q8N884). The experiment in a line: proximity ligation.
For experiment [3] the target is unchanged. The experiment in a line: co-IP; nuclear extracts of BCBL-1 cells (latent KSHV); IP with anti-IFI16, anti-H2B or anti-cGAS antibodies, immunoblot.
Experiment [4] has the same target. The experiment in a line: co-IP; cytoplasmic extracts of BCBL-1 cells (latent KSHV); IP with anti-IFI16, anti-H2B, anti-STING or anti-cGAS antibodies, immunoblot.
Experiment [5] shares this target. The experiment can be described thus: co-IP; nuclear fractions of uninfected BJAB, HMVEC-d and HFF cells; IP with anti-IFI16, anti-H2B or anti-cGAS antibodies overnight at 4°C, protein A/G sepharose, immunoblot.
For experiment [6] the target is unchanged. The experiment can be described thus: co-IP; cytoplasmic fractions of KSHV infected (30 DNA copies/cell; 2, 4, 12, 24 h p.i.) HMVEC-d cells; IP with anti-IFI16, anti-H2B, anti-STING or anti-cGAS antibodies, immunoblot. (In general: Immunoblotting shows a protein as a band on a membrane.)
The target is the same in experiment [7]. The experiment in a line: condition: only uninfected BJAB cells (cytoplasmic fraction); co-IP; cytoplasmic fractions of uninfected BJAB, HMVEC-d and HFF cells; IP with anti-IFI16, anti-H2B, anti-STING or anti-cGAS antibodies, immunoblot.
Experiment [8] shares this target. The experiment can be described thus: proximity ligation; double sequential PLA (green, then red detection) on uninfected HMVEC-d cells.
The target is the same in experiment [9]. The experiment in a line: proximity ligation; double sequential PLA (green, then red detection) on HMVEC-d cells infected with KSHV for 4 h.

On to ASC (from UniProt Q9ULZ3 1-195), for which, in experiment [1], the binding entry is given as “no binding (condition: uninfected cells)”.
On to “IFI16 (gamma-interferon-inducible protein 16) (from UniProt Q16666 1-785)”, for which the binding entry in experiment [2] is on record as “binds”; in experiment [3], “binds”; in experiment [4], “binds”; in [5], “binds”; in experiment [6], “binds”; in [7] it was “no binding”.
As to STING (from UniProt Q86WV6 1-379), the binding entry in [8] is “no binding (condition: uninfected cells)”; in experiment [9] it was “binds”; in experiment [4] it was “binds”; in experiment [6], “binds”.
